Source: PubChem BioAssay AID1508597 (Cure First, 2020)

- Assay: 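Survival screen with siRNA in ovarian cancer cells derived from patients, with or without rucaparib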 (primary screen)
- Cells: human ovarian carcinoma lines grown from tumours: OCI-P5x (papillary serous) and OCI-C5x (clear cell)
- Reagents: siRNA pool against human genes, 1.25 pmol siRNA per well
- Duration: 72 h or 96 h, depending on the cell culture
- Conditions: rucaparib 20 µM (about IC30) or vehicle, present until read-out
- Rucaparib or vehicle: Rucaparib
- Cell line: OCI-C5x (clear cell)
- Read-out: 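Luminescent ATP-based viability assay read 72 or 96 h after transfection, depending on culture, given as normalised percent viability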
- Reading the numbers: viability, normalised: higher = more viable cells remaining
- Hit rule: 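a well counts as a hit if its normalised viability is under 80 percent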
- Meaning of the calls: active = viability under 80%; inactive = viability 80% or more
Shown is a random part of the about 2,100 reagents, under one of the conditions tested. 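Calls flag viability under 80% in either arm, not effects specific to rucaparib; the reference for percent is not stated.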 The record does not give: the 100% reference.

{"gene": "SMC1B (GeneID 27127)", "technical replicate": "1", "viability, normalised (%)": 51.5, "Call": "active"}
{"gene": "SMC1B (GeneID 27127)", "technical replicate": "2", "viability, normalised (%)": 55.4, "Call": "active"}
{"gene": "SMC1B (GeneID 27127)", "technical replicate": "3", "viability, normalised (%)": 43.1, "Call": "active"}
{"gene": "CLDN14 (GeneID 23562)", "technical replicate": "1", "viability, normalised (%)": 53.8, "Call": "active"}
{"gene": "CLDN14 (GeneID 23562)", "technical replicate": "2", "viability, normalised (%)": 37.7, "Call": "active"}
{"gene": "CLDN14 (GeneID 23562)", "technical replicate": "3", "viability, normalised (%)": 37.3, "Call": "active"}
{"gene": "HMGA2 (GeneID 8091)", "technical replicate": "1", "viability, normalised (%)": 54.4, "Call": "active"}
{"gene": "HMGA2 (GeneID 8091)", "technical replicate": "2", "viability, normalised (%)": 37.3, "Call": "active"}
{"gene": "HMGA2 (GeneID 8091)", "technical replicate": "3", "viability, normalised (%)": 39.8, "Call": "active"}
{"gene": "PHF10 (GeneID 55274)", "technical replicate": "1", "viability, normalised (%)": 95.2, "Call": "inactive"}
{"gene": "PHF10 (GeneID 55274)", "technical replicate": "2", "viability, normalised (%)": 67.7, "Call": "active"}
{"gene": "PHF10 (GeneID 55274)", "technical replicate": "3", "viability, normalised (%)": 47.9, "Call": "active"}
{"gene": "UHMK1 (GeneID 127933)", "technical replicate": "1", "viability, normalised (%)": 57.5, "Call": "active"}
{"gene": "UHMK1 (GeneID 127933)", "technical replicate": "2", "viability, normalised (%)": 60.4, "Call": "active"}
{"gene": "UHMK1 (GeneID 127933)", "technical replicate": "3", "viability, normalised (%)": 67.6, "Call": "active"}
{"gene": "ZDHHC3 (GeneID 51304)", "technical replicate": "1", "viability, normalised (%)": 57.5, "Call": "active"}
{"gene": "ZDHHC3 (GeneID 51304)", "technical replicate": "2", "viability, normalised (%)": 57.8, "Call": "active"}
{"gene": "ZDHHC3 (GeneID 51304)", "technical replicate": "3", "viability, normalised (%)": 37.3, "Call": "active"}
{"gene": "VRK2 (GeneID 7444)", "technical replicate": "1", "viability, normalised (%)": 71.8, "Call": "active"}
{"gene": "VRK2 (GeneID 7444)", "technical replicate": "2", "viability, normalised (%)": 62.1, "Call": "active"}
{"gene": "VRK2 (GeneID 7444)", "technical replicate": "3", "viability, normalised (%)": 53.8, "Call": "active"}
{"gene": "PKM (GeneID 5315)", "technical replicate": "1", "viability, normalised (%)": 59.1, "Call": "active"}
{"gene": "PKM (GeneID 5315)", "technical replicate": "2", "viability, normalised (%)": 75.2, "Call": "active"}
{"gene": "PKM (GeneID 5315)", "technical replicate": "3", "viability, normalised (%)": 72, "Call": "active"}
{"gene": "TRPM6 (GeneID 140803)", "technical replicate": "1", "viability, normalised (%)": 64.1, "Call": "active"}
{"gene": "TRPM6 (GeneID 140803)", "technical replicate": "2", "viability, normalised (%)": 39.1, "Call": "active"}
{"gene": "TRPM6 (GeneID 140803)", "technical replicate": "3", "viability, normalised (%)": 44, "Call": "active"}
{"gene": "EZH2 (GeneID 2146)", "technical replicate": "1", "viability, normalised (%)": 52.1, "Call": "active"}
{"gene": "EZH2 (GeneID 2146)", "technical replicate": "2", "viability, normalised (%)": 40, "Call": "active"}
{"gene": "EZH2 (GeneID 2146)", "technical replicate": "3", "viability, normalised (%)": 48.3, "Call": "active"}
{"gene": "CDKL4 (GeneID 344387)", "technical replicate": "1", "viability, normalised (%)": 52.9, "Call": "active"}
{"gene": "CDKL4 (GeneID 344387)", "technical replicate": "2", "viability, normalised (%)": 73.7, "Call": "active"}
{"gene": "CDKL4 (GeneID 344387)", "technical replicate": "3", "viability, normalised (%)": 48.5, "Call": "active"}

Looked up above:
CLDN14 (GeneID 23562), technical replicate 1, viability, normalised (%) = 53.8
Result for CLDN14 (GeneID 23562), technical replicate 3 in “Call”: active
